Test results from patent publication US6562856B1, “Pyrazolyl benzyl ether deriviatives having a fluoromethoxy group and the use thereof as pesticides” (Bayer Aktiengesellschaft, priority 1999, dated 2003).
Some results were stated once for a whole list of compounds, not compound by compound.

What was measured:
Type in all cases: in vivo
Venturia inaequalis = experiment: Venturia Test (Apple)/protective; details: protective, application rate 10 g/ha, evaluation 12 days after inoculation
Phytophthora infestans = details: tomato, protective, application rate 100 g/ha, evaluation 3 days after inoculation
Puccinia recondita = experiment: Puccinia Test (Wheat)/protective; details: protective, application rate 250 g/ha, evaluation 10 days after inoculation

COC(=O)C(=COCF)c1ccccc1COc1ccn(-c2ccc(C)cc2)n1 [Example 10]
efficacy (Venturia inaequalis): ≥ 98%
efficacy (Phytophthora infestans): ≥ 91%

COC(=O)C(=COCF)c1ccccc1COc1ccn(-c2ccc(F)cc2F)n1 [Example 17]
efficacy (Venturia inaequalis): ≥ 98%
efficacy (Phytophthora infestans): ≥ 91%

COC(=O)C(=COCF)c1ccccc1COc1ccn(-c2ccccc2Cl)n1 [Example 8]
efficacy (Venturia inaequalis): ≥ 98%
efficacy (Phytophthora infestans): ≥ 91%

COC(=O)C(=COCF)c1ccccc1COc1ccn(-c2ccc(Cl)cc2)n1 [Example 1, methyl 2-[2-({[1-(4-chlorophenyl)-1H-pyrazol-3-yl]oxy}methyl)phenyl]-3-(fluoromethoxy)-2-acrylate]
efficacy (Puccinia recondita): ≥ 98%
efficacy (Venturia inaequalis): ≥ 98%
efficacy (Phytophthora infestans): ≥ 91%

COC(=O)C(=COCF)c1ccccc1COc1ccn(-c2ccc(Br)cc2)n1 [Example 6]
efficacy (Venturia inaequalis): ≥ 98%
efficacy (Phytophthora infestans): ≥ 91%

COC(=O)C(=COCF)c1ccccc1COc1ccn(-c2ccc(Cl)cc2Cl)n1 [Example 11]
efficacy (Venturia inaequalis): ≥ 98%
efficacy (Phytophthora infestans): ≥ 91%

COC(=O)C(=COCF)c1ccccc1COc1ccn(-c2c(Cl)cc(C(F)(F)F)cc2Cl)n1 [Example 14]
efficacy (Venturia inaequalis): ≥ 98%
efficacy (Phytophthora infestans): ≥ 91%

COC(=O)C(=COCF)c1ccccc1COc1ccn(-c2ccccc2)n1 [Example 13]
efficacy (Venturia inaequalis): ≥ 98%
efficacy (Phytophthora infestans): ≥ 91%

COC(=O)C(=COCF)c1ccccc1COc1ccn(-c2ccc(C(C)(C)C)cc2)n1 [Example 2]
efficacy (Puccinia recondita): ≥ 98%
efficacy (Venturia inaequalis): ≥ 98%
efficacy (Phytophthora infestans): ≥ 91%

COC(=O)C(=COCF)c1ccccc1COc1ccn(-c2cccc(C)c2)n1 [Example 16]
efficacy (Venturia inaequalis): ≥ 98%
efficacy (Phytophthora infestans): ≥ 91%

COC(=O)C(=COCF)c1ccccc1COc1ccn(-c2cccc(Cl)c2)n1 [Example 18]
efficacy (Venturia inaequalis): ≥ 98%
efficacy (Phytophthora infestans): ≥ 91%

COC(=O)C(=COCF)c1ccccc1COc1ccn(-c2ccc(F)cc2)n1 [Example 3]
efficacy (Venturia inaequalis): ≥ 98%
efficacy (Phytophthora infestans): ≥ 91%

COC(=O)C(=COCF)c1ccccc1COc1ccn(-c2ccc(C(C)C)cc2)n1 [Example 4]
efficacy (Puccinia recondita): ≥ 98%
efficacy (Venturia inaequalis): ≥ 98%
efficacy (Phytophthora infestans): ≥ 91%

COC(=O)C(=COCF)c1ccccc1COc1ccn(-c2c(Cl)cccc2Cl)n1 [Example 15]
efficacy (Phytophthora infestans): ≥ 91%

COC(=O)C(=COCF)c1ccccc1COc1ccn(-c2cccc(Br)c2)n1 [Example 5]
efficacy (Venturia inaequalis): ≥ 98%
efficacy (Phytophthora infestans): ≥ 91%

COC(=O)C(=COCF)c1ccccc1COc1ccn(-c2ccc(C#N)cc2)n1 [Example 9]
efficacy (Venturia inaequalis): ≥ 98%
efficacy (Phytophthora infestans): ≥ 91%

COC(=O)C(=COCF)c1ccccc1COc1ccn(-c2cc(Cl)cc(Cl)c2)n1 [Example 7]
efficacy (Venturia inaequalis): ≥ 98%
efficacy (Phytophthora infestans): ≥ 91%

COC(=O)C(=COCF)c1ccccc1COc1ccn(-c2ccccc2Br)n1 [Example 12]
efficacy (Venturia inaequalis): ≥ 98%
efficacy (Phytophthora infestans): ≥ 91%
